Assay [1] deals with Cdc42 (UniProt P60953). As to the kind of experiment: SEC; analytical gel filtration, Superdex 200 Increase 10/300; 7 uM Cdc42EP3, 7 uM GDP-loaded Cdc42, or both; both purified.
The target of assay [2] is Cdc42 (UniProt P60953). As to the kind of experiment: SEC; analytical gel filtration, Superdex 200 Increase 10/300; 7 uM Cdc42EP3, 7 uM GMPPNP-loaded Cdc42, or both; both purified.
In assay [3] the target is Cdc42EP3 (wild type, full length, recombinant) (human) (UniProt Q9UKI2). As to the kind of experiment: AUC; sedimentation velocity; Cdc42EP3 at 5, 3.75 and 1.67 uM in 1x KMEI, 42,000 RPM, 20 C, absorbance at 232 nm; both purified.
For assay [4], the target named is T1, SEPT2/6/7 (wild type septin complex; hexamers polymerized to filaments) (UniProt Q15019).
T1 sequence 1: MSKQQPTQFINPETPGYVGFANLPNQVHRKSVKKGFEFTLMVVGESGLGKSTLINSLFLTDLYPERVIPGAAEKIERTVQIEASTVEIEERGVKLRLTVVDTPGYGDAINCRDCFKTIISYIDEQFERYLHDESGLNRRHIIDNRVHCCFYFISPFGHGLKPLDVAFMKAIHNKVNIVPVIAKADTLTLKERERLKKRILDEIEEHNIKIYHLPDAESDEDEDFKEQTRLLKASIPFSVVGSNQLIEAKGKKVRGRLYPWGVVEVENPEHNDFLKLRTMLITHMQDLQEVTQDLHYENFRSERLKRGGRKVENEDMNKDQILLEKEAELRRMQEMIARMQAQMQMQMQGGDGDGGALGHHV
T1 sequence 2: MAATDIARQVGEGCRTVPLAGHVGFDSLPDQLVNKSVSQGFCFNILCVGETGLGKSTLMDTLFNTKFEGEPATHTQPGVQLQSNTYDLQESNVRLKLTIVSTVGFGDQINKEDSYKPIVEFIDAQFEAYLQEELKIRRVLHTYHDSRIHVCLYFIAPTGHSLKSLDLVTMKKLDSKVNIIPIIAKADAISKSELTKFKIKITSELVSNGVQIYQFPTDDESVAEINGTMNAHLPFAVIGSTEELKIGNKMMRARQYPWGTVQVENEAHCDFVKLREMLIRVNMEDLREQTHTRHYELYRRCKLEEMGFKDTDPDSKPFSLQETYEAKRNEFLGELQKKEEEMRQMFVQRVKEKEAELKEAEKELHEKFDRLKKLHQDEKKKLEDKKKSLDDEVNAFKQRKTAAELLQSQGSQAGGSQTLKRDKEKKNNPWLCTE
T1 sequence 3: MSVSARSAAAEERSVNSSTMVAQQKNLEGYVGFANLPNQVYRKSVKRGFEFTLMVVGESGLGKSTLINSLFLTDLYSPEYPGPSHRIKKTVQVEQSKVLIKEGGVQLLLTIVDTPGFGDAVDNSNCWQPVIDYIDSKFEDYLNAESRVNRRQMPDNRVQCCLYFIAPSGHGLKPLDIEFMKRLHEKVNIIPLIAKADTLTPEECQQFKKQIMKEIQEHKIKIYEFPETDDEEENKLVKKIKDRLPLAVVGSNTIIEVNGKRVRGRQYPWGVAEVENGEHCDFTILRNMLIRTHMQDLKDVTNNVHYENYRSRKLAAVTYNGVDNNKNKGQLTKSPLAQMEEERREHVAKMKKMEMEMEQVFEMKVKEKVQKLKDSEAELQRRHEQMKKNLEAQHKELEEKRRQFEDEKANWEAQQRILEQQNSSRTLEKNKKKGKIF
As to the kind of experiment: co-sedimentation; 7 uM SEPT2/6/7 filaments and 1 uM Cdc42EP3 in 100 mM KCl, 1 mM MgCl2, 10 mM HEPES pH 7.0, 1 mM DTT; 1 h on ice; 21,130g; both purified.

Chains of the proteins cited; added tags and fusions are not shown.
UniProt P60953: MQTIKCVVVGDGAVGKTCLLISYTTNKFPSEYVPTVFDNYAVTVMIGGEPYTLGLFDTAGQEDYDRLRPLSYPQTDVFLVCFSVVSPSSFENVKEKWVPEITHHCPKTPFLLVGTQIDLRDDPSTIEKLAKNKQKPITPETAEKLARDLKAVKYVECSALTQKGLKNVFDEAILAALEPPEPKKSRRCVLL

These are yes or no findings as the source states them, for the method shown. Some results given as binding are weak or reduced against the parent protein; the word gives no strength.

Regarding “Cdc42EP3 (wild type, full length, recombinant) (from UniProt Q9UKI2 1-254)”, the binding result with Cdc42 [1] is on record as “no binding (condition: GDP-loaded Cdc42 (7 uM each))”; with Cdc42 [2], “binds”; in assay [3] it was “no binding (tested: 5 uM)”; in assay [4], “binds”.

The values are drawn from article PMC11952830.
